Data reported in the supplement of paper PMC10849652.
This is one part of the list.

Sequences of proteins named here, by UniProt entry; tags and fusion partners are left off. A change or cut given only in a name is not applied to a line headed by its entry.
UniProt P18846: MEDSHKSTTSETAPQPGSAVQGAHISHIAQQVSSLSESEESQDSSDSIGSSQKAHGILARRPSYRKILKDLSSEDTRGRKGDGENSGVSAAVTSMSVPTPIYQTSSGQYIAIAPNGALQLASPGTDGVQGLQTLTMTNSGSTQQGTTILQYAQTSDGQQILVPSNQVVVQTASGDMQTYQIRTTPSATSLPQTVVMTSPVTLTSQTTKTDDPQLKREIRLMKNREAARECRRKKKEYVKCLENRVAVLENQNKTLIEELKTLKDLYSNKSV
UniProt Q8IZT6: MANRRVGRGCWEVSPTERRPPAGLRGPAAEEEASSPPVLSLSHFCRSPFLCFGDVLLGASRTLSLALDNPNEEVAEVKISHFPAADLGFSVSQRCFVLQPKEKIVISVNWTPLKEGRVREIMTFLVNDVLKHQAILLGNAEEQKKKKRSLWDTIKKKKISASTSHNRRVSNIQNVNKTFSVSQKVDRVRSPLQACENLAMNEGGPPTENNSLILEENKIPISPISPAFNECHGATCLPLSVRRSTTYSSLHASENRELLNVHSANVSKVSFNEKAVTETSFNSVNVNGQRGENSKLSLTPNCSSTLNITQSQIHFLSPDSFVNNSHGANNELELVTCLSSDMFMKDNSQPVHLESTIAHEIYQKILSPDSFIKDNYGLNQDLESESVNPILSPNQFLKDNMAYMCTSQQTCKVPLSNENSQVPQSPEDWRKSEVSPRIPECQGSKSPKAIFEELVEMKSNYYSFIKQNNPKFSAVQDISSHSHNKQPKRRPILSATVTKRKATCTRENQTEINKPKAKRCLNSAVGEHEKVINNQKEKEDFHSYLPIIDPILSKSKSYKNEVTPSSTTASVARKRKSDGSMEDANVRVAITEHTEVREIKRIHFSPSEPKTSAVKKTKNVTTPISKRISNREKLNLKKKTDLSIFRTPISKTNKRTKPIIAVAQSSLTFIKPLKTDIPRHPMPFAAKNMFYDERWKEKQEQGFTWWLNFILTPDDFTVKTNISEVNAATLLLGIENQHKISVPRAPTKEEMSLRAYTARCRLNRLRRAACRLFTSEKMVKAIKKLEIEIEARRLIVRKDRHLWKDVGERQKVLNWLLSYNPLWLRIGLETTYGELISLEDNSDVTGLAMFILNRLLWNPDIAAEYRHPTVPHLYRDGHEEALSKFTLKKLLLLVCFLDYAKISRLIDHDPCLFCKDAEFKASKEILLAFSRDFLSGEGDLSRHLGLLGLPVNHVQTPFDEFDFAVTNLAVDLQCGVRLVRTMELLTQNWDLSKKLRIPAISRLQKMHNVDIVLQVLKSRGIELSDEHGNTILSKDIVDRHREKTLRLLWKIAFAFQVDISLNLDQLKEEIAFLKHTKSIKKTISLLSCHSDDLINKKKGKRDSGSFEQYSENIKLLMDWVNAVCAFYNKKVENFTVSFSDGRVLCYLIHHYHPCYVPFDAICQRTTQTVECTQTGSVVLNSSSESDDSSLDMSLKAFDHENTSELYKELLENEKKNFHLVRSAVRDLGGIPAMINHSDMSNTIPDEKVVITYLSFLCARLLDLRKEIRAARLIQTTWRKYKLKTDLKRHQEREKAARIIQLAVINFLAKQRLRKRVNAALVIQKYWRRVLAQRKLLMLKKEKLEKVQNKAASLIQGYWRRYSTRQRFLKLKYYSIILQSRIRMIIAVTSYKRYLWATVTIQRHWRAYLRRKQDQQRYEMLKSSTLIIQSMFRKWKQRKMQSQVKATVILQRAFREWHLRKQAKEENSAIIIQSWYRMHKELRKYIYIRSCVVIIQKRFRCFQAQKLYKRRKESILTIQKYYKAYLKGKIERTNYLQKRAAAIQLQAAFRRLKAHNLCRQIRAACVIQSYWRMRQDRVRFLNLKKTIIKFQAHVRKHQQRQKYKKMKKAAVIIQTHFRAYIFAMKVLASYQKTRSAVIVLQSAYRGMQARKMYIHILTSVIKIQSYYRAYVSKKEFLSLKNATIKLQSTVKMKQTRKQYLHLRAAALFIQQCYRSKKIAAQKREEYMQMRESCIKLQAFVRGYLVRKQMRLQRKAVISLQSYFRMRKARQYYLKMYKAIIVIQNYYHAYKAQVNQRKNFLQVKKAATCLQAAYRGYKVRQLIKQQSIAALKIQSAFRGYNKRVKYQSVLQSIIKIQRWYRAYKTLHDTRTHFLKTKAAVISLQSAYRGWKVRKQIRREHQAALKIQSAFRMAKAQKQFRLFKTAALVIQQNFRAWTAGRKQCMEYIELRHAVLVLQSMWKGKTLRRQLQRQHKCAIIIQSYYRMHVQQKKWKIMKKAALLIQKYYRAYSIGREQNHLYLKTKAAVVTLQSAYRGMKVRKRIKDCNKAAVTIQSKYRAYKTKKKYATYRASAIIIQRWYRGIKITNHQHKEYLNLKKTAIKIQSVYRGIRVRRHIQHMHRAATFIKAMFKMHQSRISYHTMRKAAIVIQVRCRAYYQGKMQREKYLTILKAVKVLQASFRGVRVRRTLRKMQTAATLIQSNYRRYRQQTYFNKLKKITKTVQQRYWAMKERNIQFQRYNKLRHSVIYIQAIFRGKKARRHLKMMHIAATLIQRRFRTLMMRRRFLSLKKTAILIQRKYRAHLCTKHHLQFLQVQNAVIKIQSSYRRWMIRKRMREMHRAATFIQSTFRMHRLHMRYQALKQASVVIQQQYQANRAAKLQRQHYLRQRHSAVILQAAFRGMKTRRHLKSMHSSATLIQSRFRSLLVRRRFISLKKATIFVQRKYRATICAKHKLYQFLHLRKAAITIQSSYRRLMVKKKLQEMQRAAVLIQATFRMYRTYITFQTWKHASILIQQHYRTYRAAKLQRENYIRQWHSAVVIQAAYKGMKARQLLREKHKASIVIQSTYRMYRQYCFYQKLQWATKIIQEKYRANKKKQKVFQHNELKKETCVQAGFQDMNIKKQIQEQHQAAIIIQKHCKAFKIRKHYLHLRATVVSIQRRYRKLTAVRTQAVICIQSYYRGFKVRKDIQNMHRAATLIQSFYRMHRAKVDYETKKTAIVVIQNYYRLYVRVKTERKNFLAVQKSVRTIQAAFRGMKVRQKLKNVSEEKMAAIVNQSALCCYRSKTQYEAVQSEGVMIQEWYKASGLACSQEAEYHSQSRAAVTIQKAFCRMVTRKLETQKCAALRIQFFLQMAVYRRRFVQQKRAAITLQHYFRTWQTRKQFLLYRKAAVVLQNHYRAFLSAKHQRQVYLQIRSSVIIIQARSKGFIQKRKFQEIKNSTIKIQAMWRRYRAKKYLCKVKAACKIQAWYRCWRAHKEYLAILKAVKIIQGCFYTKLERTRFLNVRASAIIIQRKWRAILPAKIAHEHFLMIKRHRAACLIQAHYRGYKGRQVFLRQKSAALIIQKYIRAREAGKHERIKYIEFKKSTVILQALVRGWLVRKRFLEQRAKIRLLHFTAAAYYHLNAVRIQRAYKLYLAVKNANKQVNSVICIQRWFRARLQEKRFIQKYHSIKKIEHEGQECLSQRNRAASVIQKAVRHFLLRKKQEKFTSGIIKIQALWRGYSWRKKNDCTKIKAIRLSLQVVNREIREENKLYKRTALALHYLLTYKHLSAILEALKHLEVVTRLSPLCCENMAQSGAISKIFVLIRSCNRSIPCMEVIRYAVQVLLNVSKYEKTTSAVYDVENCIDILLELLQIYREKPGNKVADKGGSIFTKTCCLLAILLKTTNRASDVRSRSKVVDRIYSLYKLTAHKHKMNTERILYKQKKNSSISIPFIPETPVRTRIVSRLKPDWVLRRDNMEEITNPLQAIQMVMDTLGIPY
UniProt P56385: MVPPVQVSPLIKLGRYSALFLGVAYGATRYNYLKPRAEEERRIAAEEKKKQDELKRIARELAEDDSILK
UniProt P27449, whole entry, looked up: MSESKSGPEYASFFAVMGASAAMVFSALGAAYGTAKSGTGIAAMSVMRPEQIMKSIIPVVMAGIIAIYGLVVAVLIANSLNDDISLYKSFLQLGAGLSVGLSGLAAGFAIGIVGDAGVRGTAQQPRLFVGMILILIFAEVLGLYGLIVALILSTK
UniProt O94817, whole entry, looked up: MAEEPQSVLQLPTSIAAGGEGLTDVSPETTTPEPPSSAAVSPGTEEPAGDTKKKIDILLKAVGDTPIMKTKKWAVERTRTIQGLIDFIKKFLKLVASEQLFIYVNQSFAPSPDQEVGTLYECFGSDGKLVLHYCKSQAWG
UniProt P18847: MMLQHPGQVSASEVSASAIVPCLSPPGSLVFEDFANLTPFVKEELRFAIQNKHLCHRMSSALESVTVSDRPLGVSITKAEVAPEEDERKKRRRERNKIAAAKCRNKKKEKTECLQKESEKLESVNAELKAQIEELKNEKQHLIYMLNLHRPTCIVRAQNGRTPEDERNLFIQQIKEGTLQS
UniProt Q9C0F0: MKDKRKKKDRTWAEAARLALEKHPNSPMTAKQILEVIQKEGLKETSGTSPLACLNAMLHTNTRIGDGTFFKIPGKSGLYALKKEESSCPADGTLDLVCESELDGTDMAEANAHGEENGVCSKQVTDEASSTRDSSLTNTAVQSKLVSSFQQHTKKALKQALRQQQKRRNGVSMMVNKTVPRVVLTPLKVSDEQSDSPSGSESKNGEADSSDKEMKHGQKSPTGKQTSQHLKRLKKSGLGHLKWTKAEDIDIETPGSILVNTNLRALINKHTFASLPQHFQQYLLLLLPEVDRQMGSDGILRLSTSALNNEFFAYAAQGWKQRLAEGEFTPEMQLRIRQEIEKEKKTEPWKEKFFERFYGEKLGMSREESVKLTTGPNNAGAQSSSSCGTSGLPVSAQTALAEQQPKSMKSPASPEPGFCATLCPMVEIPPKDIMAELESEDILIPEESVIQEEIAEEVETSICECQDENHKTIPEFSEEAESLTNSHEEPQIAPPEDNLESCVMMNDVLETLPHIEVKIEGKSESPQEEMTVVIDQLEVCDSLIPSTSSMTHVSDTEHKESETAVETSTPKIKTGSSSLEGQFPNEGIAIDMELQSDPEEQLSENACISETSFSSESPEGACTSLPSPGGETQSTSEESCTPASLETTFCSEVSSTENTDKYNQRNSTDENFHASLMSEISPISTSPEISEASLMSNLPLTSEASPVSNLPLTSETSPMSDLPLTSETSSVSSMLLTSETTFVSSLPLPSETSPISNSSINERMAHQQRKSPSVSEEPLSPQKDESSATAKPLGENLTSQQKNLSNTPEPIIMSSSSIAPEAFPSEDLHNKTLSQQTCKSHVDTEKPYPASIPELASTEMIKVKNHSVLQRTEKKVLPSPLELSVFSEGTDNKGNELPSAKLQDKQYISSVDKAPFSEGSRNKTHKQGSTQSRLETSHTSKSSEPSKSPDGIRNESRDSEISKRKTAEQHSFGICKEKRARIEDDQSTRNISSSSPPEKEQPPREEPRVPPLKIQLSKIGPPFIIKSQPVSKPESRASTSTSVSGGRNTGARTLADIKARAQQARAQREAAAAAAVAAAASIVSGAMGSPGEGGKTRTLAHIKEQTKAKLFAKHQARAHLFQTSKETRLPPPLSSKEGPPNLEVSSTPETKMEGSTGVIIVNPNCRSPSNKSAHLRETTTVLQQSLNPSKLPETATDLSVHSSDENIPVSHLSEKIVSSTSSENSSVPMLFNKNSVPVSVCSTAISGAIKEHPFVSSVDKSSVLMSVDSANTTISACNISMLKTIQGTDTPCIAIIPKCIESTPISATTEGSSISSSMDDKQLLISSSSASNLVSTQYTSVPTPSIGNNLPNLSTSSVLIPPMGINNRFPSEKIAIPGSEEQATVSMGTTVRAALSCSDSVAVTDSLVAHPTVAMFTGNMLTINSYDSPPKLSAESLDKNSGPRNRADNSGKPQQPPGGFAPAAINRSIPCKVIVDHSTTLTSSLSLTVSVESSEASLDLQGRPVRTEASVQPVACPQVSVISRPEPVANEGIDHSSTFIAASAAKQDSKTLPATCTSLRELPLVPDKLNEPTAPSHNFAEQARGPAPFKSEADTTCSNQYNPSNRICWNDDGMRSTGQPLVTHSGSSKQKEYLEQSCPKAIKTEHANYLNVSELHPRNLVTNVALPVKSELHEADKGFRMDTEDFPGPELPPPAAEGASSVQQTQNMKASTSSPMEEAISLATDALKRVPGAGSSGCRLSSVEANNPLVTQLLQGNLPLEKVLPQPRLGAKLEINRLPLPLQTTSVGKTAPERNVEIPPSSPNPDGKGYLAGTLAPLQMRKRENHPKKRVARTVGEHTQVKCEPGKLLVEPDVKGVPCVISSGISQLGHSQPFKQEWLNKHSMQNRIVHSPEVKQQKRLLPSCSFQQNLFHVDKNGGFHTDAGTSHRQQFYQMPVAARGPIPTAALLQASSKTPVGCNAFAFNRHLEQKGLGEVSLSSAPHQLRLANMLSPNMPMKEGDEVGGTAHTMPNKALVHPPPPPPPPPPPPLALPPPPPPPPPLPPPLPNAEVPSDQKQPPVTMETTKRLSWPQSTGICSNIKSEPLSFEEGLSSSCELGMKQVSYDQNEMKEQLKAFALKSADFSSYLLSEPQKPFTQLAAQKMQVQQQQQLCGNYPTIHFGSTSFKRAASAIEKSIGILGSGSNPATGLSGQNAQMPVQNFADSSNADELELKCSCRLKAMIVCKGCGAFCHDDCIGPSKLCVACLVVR

What was measured:
Test in all cases: log2 fold change, soluble protein after heating vs DMSO (PISA); higher = thermal stabilisation; K562 lysate, 10 uM; active = over 0.2 and 3.5 SD of the protein, either way, in both replicates (recomputed)
[1] = compound: CS(=O)(=O)CCNCc1ccc(-c2ccc3ncnc(Nc4ccc(OCc5cccc(F)c5)c(Cl)c4)c3c2)o1 [lapatinib]
In short: (§1)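 K562 pellets were dounce-homogenised in PBS pH 7.4 containing 1 mM MgCl2, and the crude extract, at 1 mg/mL protein, was exposed to 10 μM compound for 30 min. Aliquots were heated for 3 min across 48°C-58°C, pooled, brought to 0.5% NP-40 at 4°C and spun at 21,000xg for 90 min, with the supernatant taken as soluble protein. TMTpro 16plex LC-MS/MS with equalised channel sums quantified that protein. Values are log-two fold changes in thermal stability relative to solvent controls, taken from duplicates.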

[2] = compound: CS(=O)(=O)N1CCN(Cc2cc3nc(-c4cccc5[nH]ncc45)nc(N4CCOCC4)c3s2)CC1 [pictilisib]
In short: as §1

[3] = compound: C[C@@H](Oc1cc(-c2cnn(C3CCNCC3)c2)cnc1N)c1c(Cl)ccc(F)c1Cl [crizotinib]
In short: as §1

[4] = compound: C[C@H](C1=CC=C(C=C1)C(=O)NC2=C3C=CNC3=NC=C2)N
In short: as §1

[5] = compound: C[C@H](Nc1ncnc2nc[nH]c12)c1cc2cccc(Cl)c2c(=O)n1-c1ccccc1 [duvelisib]
In short: as §1

[6] = compound: Cc1cc(Nc2cc(CN3CCOCC3)c3nc(C)c(Cc4ccc(Cl)cc4F)n3n2)n[nH]1 [gandotinib]
In short: as §1

[7] = compound: Cc1ccc(-n2nc(C(C)(C)C)cc2NC(=O)Nc2ccc(OCCN3CCOCC3)c3ccccc23)cc1 [doramapimod]
In short: as §1

[8] = compound: Cc1ccc(NC(=O)c2ccc(CN3CC[C@H](N(C)C)C3)c(C(F)(F)F)c2)cc1Nc1nccc(-c2cncnc2)n1 [bafetinib]
In short: as §1

[9] = compound: Cc1cccc(CC(=O)N2CCc3c2ccc(-c2cn(C)c4ncnc(N)c24)c3F)n1
In short: as §1

[10] = compound: Cc1nc(Nc2ncc(C(=O)Nc3c(C)cccc3Cl)s2)cc(N2CCN(CCO)CC2)n1 [dasatinib]
In short: as §1

[11] = compound: Cn1cc(-c2ccc3c(c2)CCN3C(=O)Cc2cccc(C(F)(F)F)c2)c2c(N)ncnc21
In short: as §1

[12] = compound: Cn1cc(CNCC2CCN(c3ncc(C(=O)NO)cn3)CC2)c2ccccc21 [quisinostat]
In short: as §1

[13] = compound: NC(=O)Nc1cc(-c2cccc(F)c2)sc1C(=O)N[C@H]1CCCNC1
In short: as §1

[14] = compound: NC(=O)c1cnc(N[C@@H]2CCCC[C@@H]2N)nc1Nc1cccc(-n2nccn2)c1
In short: as §1

[15] = compound: NC1(c2ccc(-c3nc4ccn5c(=O)[nH]nc5c4cc3-c3ccccc3)cc2)CCC1
In short: as §1

[16] = compound: Cc1cc(Nc2cc(N3CCN(C)CC3)nc(Sc3ccc(NC(=O)C4CC4)cc3)n2)n[nH]1 [tozasertib]
In short: as §1

[17] = compound: Cc1cn(-c2cc(NC(=O)c3ccc(C)c(Nc4nccc(-c5cccnc5)n4)c3)cc(C(F)(F)F)c2)cn1 [nilotinib]
In short: as §1

[18] = compound: Cc1nc(Nc2n[nH]c3c2CN(C(=O)N[C@H](CN(C)C)c2ccccc2)C3(C)C)c2sccc2n1
In short: as §1

[19] = compound: Cc1ncc(-c2ccnc(Nc3ccc(S(C)(=O)=O)cc3)n2)n1C(C)C
In short: as §1

[20] = compound: Cn1cncc1[C@@](N)(c1ccc(Cl)cc1)c1ccc2c(c1)c(-c1cccc(Cl)c1)cc(=O)n2C [tipifarnib]
In short: as §1

Measured: log2 fold change

ATP6V0A1 (UniProt Q93050)
inactive: [1] -0.253 | [2] 0.139 | [3] -0.04 | [4] -0.077 | [5] -0.109 | [6] 0.038 | [7] -0.016 | [8] 0.064 | [9] 0.051 | [10] -0.078 | [11] 0.036 | [12] 0.045 | [13] 0.061 | [14] -0.114 | [15] -0.221

ATP6V1H (UniProt Q9UI12)
inactive: [1] -0.03 | [2] -0.036 | [3] -0.038 | [4] -0.043 | [5] 0.014 | [6] -0.017 | [16] 0.023 | [7] 0.035 | [8] 0.016 | [9] -0.007 | [17] -0.006 | [18] -0.006 | [10] -0.021 | [19] -0.002 | [11] 0.021 | [12] -0.05 | [20] -0.003 | [13] 0.007 | [14] 0.021 | [15] 0.002

ATF1 (UniProt P18846)
inactive: [1] 0.078 | [2] 0.013 | [3] 0.008 | [4] 0.042 | [5] 0.025 | [6] 0.012 | [16] -0.11 | [7] 0.044 | [8] -0.022 | [9] 0.055 | [17] -0.024 | [18] 0.058 | [10] 0.007 | [19] 0.072 | [11] -0.048 | [12] -0.042 | [20] -0.082 | [13] -0.013 | [14] 0.032 | [15] -0.06

NA (UniProt B2RBV5)
inactive: [1] -0.049 | [2] 0 | [3] 0.017 | [16] -0.092 | [7] 0.007 | [8] 0.037 | [17] 0.01 | [18] -0.025 | [19] -0.356 | [12] -0.044 | [20] 0.026 | [13] -0.197 | [14] -0.182 | [15] 0.014

ATXN2 (UniProt F8WB05)
inactive: [1] 0.06 | [2] 0.005 | [3] -0.023 | [4] 0.087 | [5] -0.065 | [6] -0.028 | [16] 0.043 | [7] -0.12 | [8] 0.045 | [9] 0.001 | [10] 0.035 | [11] -0.058 | [12] -0.208 | [13] -0.025 | [14] 0.025 | [15] -0.394

ASPM (UniProt Q8IZT6)
inactive: [1] 0 | [3] 0.017 | [4] 0.007 | [5] -0.022 | [6] -0.03 | [16] -0.031 | [7] -0.017 | [9] -0.024 | [17] -0.018 | [18] 0.006 | [10] 0.075 | [19] 0.023 | [11] 0.089 | [12] 0.051 | [20] 0.009 | [13] 0.018 | [14] -0.015 | [15] -0.007

ATAD3A (UniProt Q9NVI7)
inactive: [1] -0.016 | [2] -0.082 | [3] -0.049 | [4] 0.096 | [5] 0.037 | [6] -0.184 | [16] -0.088 | [7] 0.004 | [8] -0.142 | [9] -0.055 | [17] 0.018 | [18] 0.112 | [10] -0.008 | [19] 0.007 | [11] 0.011 | [12] -0.025 | [20] -0.018 | [13] 0.088 | [14] -0.054 | [15] 0.003

ATP5ME (UniProt P56385)
inactive: [1] 0.019 | [2] 0.021 | [3] 0.015 | [4] -0.062 | [5] 0.002 | [6] 0.025 | [16] 0.008 | [7] -0.009 | [8] -0.069 | [9] 0.001 | [17] 0.054 | [18] 0.036 | [10] -0.029 | [19] 0.026 | [11] -0.01 | [12] -0.003 | [20] -0.009 | [13] 0.002 | [14] -0.022 | [15] -0.019

ATP6V0C (UniProt P27449)
inactive: [1] -0.098 | [2] 0.091 | [3] -0.01 | [4] -0.262 | [5] 0.117 | [6] 0.32 | [16] -0.203 | [7] 0.001 | [8] 0.01 | [9] 0.073 | [10] 0.1 | [11] -0.009 | [12] -0.062 | [13] -0.004 | [14] -0.069 | [15] 0.039

Copied from the entries so far (4 entries):
ATXN2 (UniProt F8WB05)
inactive: [1] 0.06 | [2] 0.005 | [3] -0.023 | [4] 0.087 | [5] -0.065 | [6] -0.028 | [16] 0.043 | [7] -0.12 | [8] 0.045 | [9] 0.001 | [10] 0.035 | [11] -0.058 | [12] -0.208 | [13] -0.025 | [14] 0.025 | [15] -0.394

ASPM (UniProt Q8IZT6)
inactive: [1] 0 | [3] 0.017 | [4] 0.007 | [5] -0.022 | [6] -0.03 | [16] -0.031 | [7] -0.017 | [9] -0.024 | [17] -0.018 | [18] 0.006 | [10] 0.075 | [19] 0.023 | [11] 0.089 | [12] 0.051 | [20] 0.009 | [13] 0.018 | [14] -0.015 | [15] -0.007

ATAD3A (UniProt Q9NVI7)
inactive: [1] -0.016 | [2] -0.082 | [3] -0.049 | [4] 0.096 | [5] 0.037 | [6] -0.184 | [16] -0.088 | [7] 0.004 | [8] -0.142 | [9] -0.055 | [17] 0.018 | [18] 0.112 | [10] -0.008 | [19] 0.007 | [11] 0.011 | [12] -0.025 | [20] -0.018 | [13] 0.088 | [14] -0.054 | [15] 0.003

ATP5ME (UniProt P56385)
inactive: [1] 0.019 | [2] 0.021 | [3] 0.015 | [4] -0.062 | [5] 0.002 | [6] 0.025 | [16] 0.008 | [7] -0.009 | [8] -0.069 | [9] 0.001 | [17] 0.054 | [18] 0.036 | [10] -0.029 | [19] 0.026 | [11] -0.01 | [12] -0.003 | [20] -0.009 | [13] 0.002 | [14] -0.022 | [15] -0.019

Additional entries

ATP6V1E2 (UniProt Q96A05)
inactive: [1] -0.029 | [2] -0.018 | [3] 0.045 | [4] -0.093 | [5] 0.036 | [6] 0.086 | [16] -0.065 | [7] -0.012 | [8] -0.009 | [9] 0.066 | [17] 0.011 | [18] 0.003 | [10] -0.024 | [19] 0.004 | [11] -0.005 | [12] 0.013 | [20] 0.009 | [13] -0.031 | [14] 0.006 | [15] -0.037

ATG12 (UniProt O94817)
inactive: [1] -0.01 | [2] -0.007 | [3] -0.061 | [4] -0.118 | [5] -0.008 | [6] 0.079 | [16] 0 | [7] -0.001 | [8] -0.03 | [9] 0.099 | [17] 0.034 | [18] -0.057 | [10] -0.047 | [19] -0.004 | [11] 0.011 | [12] -0.078 | [20] -0.028 | [13] 0.03 | [14] -0.004 | [15] 0.004

ATRIP (UniProt Q8WXE1)
inactive: [1] -0.046 | [2] 0.187 | [3] 0.012 | [4] -0.034 | [5] -0.016 | [6] -0.056 | [16] 0.097 | [7] 0.001 | [8] -0.035 | [9] 0.006 | [17] -0.014 | [18] -0.028 | [10] -0.059 | [19] 0.071 | [11] 0.045 | [12] -0.03 | [20] -0.049 | [13] -0.007 | [14] 0.01 | [15] 0.032

ATF6 (UniProt P18850)
inactive: [16] 0.135 | [15] -0.166

ATXN2 (UniProt F8WB06)
inactive: [5] 0.187 | [10] -0.074 | [11] -0.053

ATRX (UniProt P46100)
inactive: [2] 0.049 | [3] -0.082 | [4] 0.062 | [5] 0.16 | [6] 0.008 | [16] 0.026 | [7] -0.001 | [8] -0.012 | [9] 0.075 | [10] 0 | [11] -0.031 | [12] -0.076 | [13] 0.143 | [15] -0.267

ATF3 (UniProt P18847)
inactive: [3] -0.032 | [4] -0.231 | [5] 0.014 | [6] 0.149 | [16] -0.007 | [7] 0.122 | [9] 0.213 | [17] 0.14 | [18] -0.181 | [10] -0.172 | [19] -0.114 | [11] -0.016 | [12] -0.12 | [20] -0.123 | [13] 0.014 | [15] 0.035

ASB3 isoform 3 (UniProt Q9Y575)
inactive: [2] 0.194 | [16] -0.004 | [8] -0.069 | [17] -0.019 | [18] -0.029 | [19] -0.136 | [20] 0.021

ATP5F1B (UniProt F8W0P7)
inactive: [5] -0.01 | [10] 0.106 | [11] 0.002 | [15] -0.096

ATAD5 (UniProt Q96QE3)
inactive: [16] 0.26 | [17] 0.078 | [18] 0.007 | [19] -0.067 | [20] -0.061 | [15] -0.025

ASXL3 (UniProt Q9C0F0)
inactive: [1] -0.109 | [3] 0.071 | [7] -0.131 | [12] -0.062 | [13] -0.019 | [14] -0.009 | [15] 0.018

ASPRV1 (UniProt Q53RT3)
inactive: [15] 0.046
